Source: PMC7910569 (Scientific Data, 2021)

How the values were obtained:
[1] = test system: SARS-CoV-2; conditions: printed as CI = IC50/CC50; Caco-2 toxicity versus SARS-CoV-2 anti-cytopathic effect
[2] = test system: MERS-CoV; conditions: BHK-21; read-out: Reports MERS (Vero-6, Calu-3 or BHK21) IC50; cited from earlier work
[3] = test system: SARS-CoV-2; assay: microbe, parasite or virus in culture; conditions: Severe acute respiratory syndrome coronavirus 2, Caco-2, 48 h, read-out: Results SARS-CoV-2 (Caco-2) IC50

| SMILES | CI (cytotoxicity index) [1] | IC50 [2] | IC50 [3] |
| --- | --- | --- | --- |
| CCCCCCCCCCCCCCCC[n+]1ccccc1 [cetylpyridinium] | < 3 | 690 nM | – |
| Clc1ccc(CSC(Cn2ccnc2)c2ccc(Cl)cc2Cl)cc1 (stereo not drawn) [sulconazole] | – | – | ≥ 20000 nM |
